Data published in paper PMC4219662.

Chains of the proteins cited; added tags and fusions are not shown. Lines headed by an entry give the natural chain unless they say otherwise; changes in a name come on top.
UniProt Q7KN62: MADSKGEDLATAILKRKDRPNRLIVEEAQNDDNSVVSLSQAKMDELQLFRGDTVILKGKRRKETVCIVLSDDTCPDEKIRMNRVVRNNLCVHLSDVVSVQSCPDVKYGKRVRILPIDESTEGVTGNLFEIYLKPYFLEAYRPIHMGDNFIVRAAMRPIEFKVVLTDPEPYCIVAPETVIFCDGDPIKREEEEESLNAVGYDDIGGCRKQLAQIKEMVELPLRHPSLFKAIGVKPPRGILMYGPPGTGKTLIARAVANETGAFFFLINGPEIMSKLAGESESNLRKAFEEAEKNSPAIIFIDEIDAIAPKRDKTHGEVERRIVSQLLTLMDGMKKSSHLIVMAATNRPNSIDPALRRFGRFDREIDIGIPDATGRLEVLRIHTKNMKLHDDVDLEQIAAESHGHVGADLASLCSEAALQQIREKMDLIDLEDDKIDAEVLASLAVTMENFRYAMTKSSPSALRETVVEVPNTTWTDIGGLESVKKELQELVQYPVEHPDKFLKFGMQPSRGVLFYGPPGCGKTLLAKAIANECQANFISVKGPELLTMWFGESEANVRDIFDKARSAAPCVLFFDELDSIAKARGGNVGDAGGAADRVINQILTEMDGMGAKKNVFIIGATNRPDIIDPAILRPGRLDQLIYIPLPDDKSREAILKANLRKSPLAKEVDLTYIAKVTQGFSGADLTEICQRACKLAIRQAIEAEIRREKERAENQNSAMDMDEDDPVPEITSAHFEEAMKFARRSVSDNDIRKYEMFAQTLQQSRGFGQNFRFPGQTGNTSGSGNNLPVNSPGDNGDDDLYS
UniProt E2QCH8: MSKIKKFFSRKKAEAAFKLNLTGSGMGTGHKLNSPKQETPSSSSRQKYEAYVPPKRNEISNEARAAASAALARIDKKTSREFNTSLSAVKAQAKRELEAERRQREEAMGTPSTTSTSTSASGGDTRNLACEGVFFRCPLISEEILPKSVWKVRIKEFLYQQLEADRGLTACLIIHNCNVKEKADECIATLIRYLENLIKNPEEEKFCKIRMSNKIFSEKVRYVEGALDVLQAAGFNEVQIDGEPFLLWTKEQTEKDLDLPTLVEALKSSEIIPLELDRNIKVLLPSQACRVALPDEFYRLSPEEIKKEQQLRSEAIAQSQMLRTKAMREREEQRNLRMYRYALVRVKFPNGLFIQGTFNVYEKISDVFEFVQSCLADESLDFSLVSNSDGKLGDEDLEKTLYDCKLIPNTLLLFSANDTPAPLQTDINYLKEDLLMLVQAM

Biological target: Ter94^HA (Drosophila) (UniProt Q7KN62)
Assay: co-IP; Ter94^HA co-expressed with FLAG-tagged Als variants in Kc-167 cells; reciprocal immunoprecipitation with anti-FLAG or anti-HA on Protein-A Sepharose, 3 h at 4°C, lysis buffer with 200 mM NaCl and 0.5% Nonidet P-40; Western blot

## endogenous Als (from UniProt E2QCH8)
  binding: binds

These are yes or no findings as the source states them, for the method shown. In cells and extracts the contact can be indirect. Binding can be weak; no strength is given.
